# Primary screen of a compound library

Chains of the proteins cited; added tags and fusions are not shown.
UniProt E9BF75, entry or part of it: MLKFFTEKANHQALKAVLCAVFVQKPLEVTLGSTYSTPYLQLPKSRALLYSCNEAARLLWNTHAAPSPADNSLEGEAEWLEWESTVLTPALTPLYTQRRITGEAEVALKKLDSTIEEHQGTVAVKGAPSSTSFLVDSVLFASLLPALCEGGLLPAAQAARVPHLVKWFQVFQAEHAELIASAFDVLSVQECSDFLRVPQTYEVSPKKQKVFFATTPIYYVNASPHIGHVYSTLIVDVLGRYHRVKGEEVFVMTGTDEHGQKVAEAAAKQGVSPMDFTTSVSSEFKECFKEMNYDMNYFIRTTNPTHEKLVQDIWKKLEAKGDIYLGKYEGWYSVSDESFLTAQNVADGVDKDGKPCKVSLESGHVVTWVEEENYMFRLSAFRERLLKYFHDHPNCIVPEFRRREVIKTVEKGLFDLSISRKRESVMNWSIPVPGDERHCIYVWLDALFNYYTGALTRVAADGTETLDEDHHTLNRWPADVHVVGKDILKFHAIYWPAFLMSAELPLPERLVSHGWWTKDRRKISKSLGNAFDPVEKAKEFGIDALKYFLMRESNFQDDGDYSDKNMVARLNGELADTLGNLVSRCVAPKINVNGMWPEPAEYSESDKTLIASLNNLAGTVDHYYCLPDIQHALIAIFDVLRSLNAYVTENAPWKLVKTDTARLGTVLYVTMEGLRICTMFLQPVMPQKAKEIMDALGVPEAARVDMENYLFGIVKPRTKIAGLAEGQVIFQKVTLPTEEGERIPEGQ

The values are deposited in ChEMBL (CHEMBL3988442, “University of Dundee, Small-Polar-MMV Screening Library” (2021)).

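Methionyl-tRNA synthetase (putative), Leishmania donovani (UniProt E9BF75). Primary screen of methionyl-tRNA synthetase; the read-out is not stated. The test concentration is not given. Values are per cent inhibition. Of about 68,000 compounds tested this way, about 24 (0.035%) reached 50% or more in at least one test.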

All values are in %.
The controls that fix the scale are not given in the record; negative values are as filed.
This is an unselected part of the compounds tested.

| SMILES | inhibition |
|---|---|
| `Cc1ccc(CN2CC[C@@H](N3CCOCC3)[C@@H]2Cc2cccnc2)o1` | 12.7 |
| `COCC(=O)N1CCc2ncc(Cn3cncn3)n2CC1` | 8.458 |
| `CN(C)CCOCc1nnc2n1CCN(Cc1cccs1)CC2` | -1.37 |
| `CCO[C@@H]1CN(Cc2scnc2C)[C@@H]2CCCO[C@@H]21` | 11.34 |
| `Cc1oncc1C(=O)N1CC[C@H]2[C@H](CO[C@@H]2CNS(C)(=O)=O)C1` | 12.59 |
| `CCn1nc(C)c2ccn(CC(=O)NCCN3CCCCC3)c(=O)c21` | 9.014 |
| `O=C(c1ccc2occc2c1)N1CCC(C(=O)O)(n2cccn2)CC1` | 9.415 |
| `O=C(CCCOc1ccccc1Cl)N1CCCC(n2cncn2)C1` (centres unmarked) | 11.66 |
| `O=c1[nH]c(-c2ccccn2)nc2c1CCN(S(=O)(=O)N1CCCC1)C2` | 1.679 |
| `O=C(CCN1CCc2ccccc21)N1C[C@@H](O)[C@H](N2CCCC2)C1` | 16.77 |
| `COc1ccc(CCNC(=O)N2CCCC(c3nncn3C)C2)cc1` (centres unmarked) | 13.64 |
| `Cn1cc(Br)cc(NC(=O)Cc2cccs2)c1=O` | 3.559 |
| `CCCn1ccnc1CN1CCCC(O)(CN(C)C)CC1` (centres unmarked) | 6.269 |
| `CCCC(C)(C)NC(=O)c1cnc(C)s1` | 7.853 |
| `CC(O)(CNC(=O)NCCc1ccc2c(c1)CCO2)c1ccccc1` (centres unmarked) | 6.789 |
| `CC(C)C(=O)N1CCC(NC2CCSCC2)C1` (centres unmarked) | 10.45 |
| `CC(=O)NCCn1ccc(-c2ccccn2)n1` | -7.726 |
| `CN1CCN(C(=O)C2CCCc3[nH]ncc32)CC1` (centres unmarked) | 14.61 |
| `CN(C)CCO[C@H]1C[C@@H](O)C12CCN(c1nccc3ccccc13)CC2` | 8.591 |
| `Cc1cc(S(=O)(=O)N2CCCc3ccc(F)cc32)sc1C(=O)O` | 2.927 |
| `Fc1cccc(N2C[C@H]3CCN(c4cccnc4)C[C@H]3C2)c1` | 38.1 |
| `COc1ccc2c(c1)C(C(=O)NCCCN1CCN(C)CC1)CC(=O)N2` (centres unmarked) | 12.93 |
| `Cc1cc(N)nc(SC2CCN(c3ccccc3)C2=O)n1` (centres unmarked) | 8.271 |
| `Cc1cc(F)ccc1N1CCCC(NC2CCOCC2)C1=O` (centres unmarked) | 9.399 |
| `CC(=O)N1CCC(Cc2ccc(-c3ccnn3C)nc2)CC1` | 11.63 |
| `COc1ccc(SC(C)C(=O)N2CCC(C(N)=O)CC2)cc1` (centres unmarked) | 5.455 |
| `CN(Cc1ccccc1)C(=O)CCNc1ncccc1C#N` | 12.1 |
| `CC(NC(=O)c1cccs1)C(=O)NCc1ccccc1CN1CCCC1` (centres unmarked) | 11.74 |
| `O=C(NCc1ccccn1)[C@]12COC[C@H]1CN(C1CCC1)C2` | 15.48 |
| `Cc1ccc(CN2CC[C@H]3[C@H]2CCN3S(C)(=O)=O)s1` | -7.769 |
| `CCOCCn1nc(C)cc1C(=O)N1C[C@@H](C)[C@](O)(C2CC2)C1` | 13.38 |
| `CN1CCC(N2Cc3nc(N)ncc3C2=O)CC1` | 5.276 |
| `COCc1cncc2c1CCN(Cc1cnn(C)c1)C2` | 1.075 |
| `N#CC1(NC(=O)c2ccc(-c3nc(C4CC4)n[nH]3)cc2)CCC1` | 13.24 |
| `O=C(NCc1ccccn1)c1cnc(C2CCCN2)cn1` (centres unmarked) | 17.72 |
| `O=C(Cn1cnc2sccc2c1=O)NCCCc1nnc2ccccn12` | 9.632 |
| `CN(C)C(=O)N1C[C@@H]2CC[C@H](C1)N(Cc1nnc(-c3ccco3)o1)C2` | 1.613 |
| `CCc1nnc2n1CCN(C(=O)c1ccc3c(c1)nnn3C)C2` | 14.45 |
| `Cc1cc(CNC2(c3ccc(Cl)cc3)CC2)no1` | 13.7 |
| `CC(C)C(C(=O)N1CCN(Cc2cscn2)CC1)n1cncn1` (centres unmarked) | 14.44 |
| `CN1CCC(N(C)C(=O)CSc2ccc(F)c(F)c2)C1=O` (centres unmarked) | 15.32 |
| `CCCNC(=O)C(C)Oc1ccc(F)cc1` (centres unmarked) | 12.36 |
| `Cc1cnn(C2CCCN(C(=O)c3sccc3C#N)C2)c1` (centres unmarked) | 4.294 |
| `Cc1nn(C)c(C)c1C1SCC(=O)Nc2c1c(O)nn2C(C)C` (centres unmarked) | 8.746 |
| `CCCN1CCC(c2cc(CCOc3ccc(C(F)(F)F)cc3)[nH]n2)C1` (centres unmarked) | 24.84 |
| `Cc1nn(CCNS(=O)(=O)c2ccccc2)c(C)c1Cl` | 11.93 |
| `CCC(CC)C(=O)NCc1c(C)nn(C)c1N1CCCN(C)CC1` | 7.833 |
| `Cc1cccc(CN2CCN(C(=O)[C@@H]3CSCN3C)CC2)c1` | 7.444 |
| `Cc1nsc(NC2CCOC3(CCCCC3)C2)n1` (centres unmarked) | 11.6 |
| `Clc1cnccc1N1CCCC2(CCCOC2)C1` (centres unmarked) | 18.32 |
| `C=C(C)CSc1nnc(CCNC(=O)OC(C)(C)C)o1` | 8.182 |
| `CS(=O)(=O)N1CCO[C@@H]2CN(C(=O)N3CCOCC3)CC[C@@H]2C1` | 17.14 |
| `CCc1ncncc1C(=O)N1CCN(Cc2ccco2)CC1` | 0 |
| `CCO[C@@H]1CC[C@H]2[C@H]1OCCN2CC1CCC1` | 10.18 |
| `CCn1nc(C)c2c1cnn2CC(=O)NC(C)c1cccc(OC)c1` (centres unmarked) | 12.31 |
| `CCNC(=O)[C@@H]1C[C@@H](NC(=O)c2ccc(C#N)cc2)CN1CCCSC` | -6.135 |
| `N#Cc1c(N)nc2c(c1-c1cnc(N3CCCC3)nc1)COCC2` | 14.92 |
| `Cc1ccc(OCCNc2cccc(C(=O)N3CCOCC3)c2)cc1` | 2.997 |
| `c1coc(CN2CCC3(CCOCC3COCC3CC3)CC2)c1` (centres unmarked) | 13.89 |

For reference, 4 entries once more:

* Cc1ccc(CN2CC[C@@H](N3CCOCC3)[C@@H]2Cc2cccnc2)o1 | 12.7%
* N#Cc1c(N)nc2c(c1-c1cnc(N3CCCC3)nc1)COCC2 | 14.92%
* CCC(CC)C(=O)NCc1c(C)nn(C)c1N1CCCN(C)CC1 | 7.833%
* CCCNC(=O)C(C)Oc1ccc(F)cc1 (centres unmarked) | 12.36%